According to the supplement of paper PMC7830784:
Counter-ions that a name gives are not always drawn. Some of the results follow. Repeats in this data set agree poorly, so a single value says little. Positions of bridges follow the written chain, without caps; N, C: chain ends. Non-standard residues stand in square brackets, D forms with d. Residues, ends and D or L forms follow the SMILES beside them.

Test system: Brugia pahangi adult female
Experiment: motility inhibition on day 3 relative to DMSO vehicle; higher = more active
Conditions: 10 µM; 3 days

Row | SMILES | motility inhibition on day 3
1 | CO[C@@]1(NC(=O)Cc2cccs2)C(=O)N2C(C(=O)O)=C(COC(N)=O)CS[C@@H]21 [cefoxitin sodium] | < 0%
2 | CC(=O)c1ccc2c(c1)N(CCCN1CCC(CCO)CC1)c1ccccc1S2 [piperacetazine] | 35.4%
3 | CNCC[C@H](Oc1cccc2ccccc12)c1cccs1 [duloxetine hydrochloride] | 29.2%
4 | O=C(CCCN1CCC(O)(c2ccc(Br)cc2)CC1)c1ccc(F)cc1 [bromperidol] | < 0%
5 | C=C[C@H]1CN2CC[C@H]1C[C@@H]2[C@@H](O)c1ccnc2ccc(OC)cc12 [quinidine gluconate] | 21%
6 | Cc1c(C(N)=O)cc([N+](=O)[O-])cc1[N+](=O)[O-] [dinitolmide] | < 0%
7 | C[C@]12CC[C@H]3C(=CCc4cc(O)ccc43)[C@@H]1CCC2=O [equilin] | 0.00121%
8 | C[C@]12C=CC(=O)C=C1CC[C@@H]1[C@@H]2[C@@H](O)C[C@@]2(C)[C@H]1CC[C@]2(O)C(=O)COP(=O)(O)O [prednisolone sodium phosphate] | 5.5%
9 | N=C(N)N [guanidine carbonate] | < 0%
10 | CN1C(C(=O)Nc2ccccn2)=C(O)c2sccc2S1(=O)=O [tenoxicam] | 6.75%
11 | N#Cc1ccc2[nH]cc(CCCCN3CCN(c4ccc5oc(C(N)=O)cc5c4)CC3)c2c1 [vilazodone hydrochloride] | 22.6%
12 | Cc1ncc([N+](=O)[O-])n1CC(O)CCl (configuration not stated) [ornidazole] | < 0%
13 | CN(C)c1ccc2nc3ccc(=[N+](C)C)cc-3sc2c1 [methylene blue] | 99.4%
14 | Cc1cccc(C)c1NC(=O)C1CCCCN1C (configuration not stated) [mepivacaine hydrochloride] | < 0%
15 | COc1ccc(C2C(=O)c3ccccc3C2=O)cc1 [anisindione] | 8.82%
16 | O=C(Nc1ccccc1)c1ccccc1O [salicylanilide] | < 0%
17 | C#C[C@]1(O)CC[C@H]2[C@@H]3CCc4cc(OC5CCCC5)ccc4[C@H]3CC[C@@]21C [quinestrol] | 5.26%
18 | Cc1ccnc2c1NC(=O)c1cccnc1N2C1CC1 [nevirapine] | 17.7%
19 | CN(C)CCC=C1c2ccccc2CCc2ccccc21 [Amitriptyline hydrochloride] | 37.8%
20 | Cc1[nH]c(=O)c(C#N)cc1-c1ccncc1 [milrinone] | < 0%
21 | CS(=O)(=O)c1ccc(C2=C(c3ccccc3)C(=O)OC2)cc1 [rofecoxib] | 10.3%
22 | Cn1c(=O)c2[nH]cnc2n(C)c1=O [Aminophylline] | 6.89%
23 | Oc1ccc(Cl)c2c1CCC2 [chlorindanol] | < 0%
24 | CC(C)COCC(CN(Cc1ccccc1)c1ccccc1)N1CCCC1 (configuration not stated) [Bepridil hydrochloride] | 56.6%

Row | SMILES | motility inhibition on day 3
25 | C=NC(C(=O)NC1C(=O)N2C1SC(C)(C)C2C(=O)O)c1ccccc1 (configuration not stated) [metampicillin sodium] | 4.56%
26 | CCC(CC)(CC(=O)Nc1cccc(/C=C/c2nc(C3CCC3)cs2)c1)C(=O)O [cinalukast] | < 0%
27 | NC(=O)c1ncn([C@@H]2O[C@H](CO)[C@@H](O)[C@H]2O)n1 [ribavirin] | < 0%
28 | CCOC(=O)[C@H](CCc1ccccc1)N[C@@H](C)C(=O)N1[C@H](C(=O)O)C[C@@H]2CCC[C@@H]21 [ramipril] | 2.81%
29 | NS(=O)(=O)c1cc2c(cc1Cl)N=CNS2(=O)=O [Chlorothiazide] | 16.3%
30 | O=C(CCCl)NCc1ccccc1 [beclamide] | 13.1%
31 | CN[C@H](CC(C)C)C(=O)N[C@H]1C(=O)N[C@@H](CC(N)=O)C(=O)N[C@H]2C(=O)N[C@H]3C(=O)N[C@H](C(=O)N[C@H](C(=O)O)c4cc(O)cc(O)c4-c4cc3ccc4O)[C@H](O)c3ccc(c(Cl)c3)Oc3cc2cc(c3O[C@@H]2O[C@H](CO)[C@@H](O)[C@H](O)[C@H]2O[C@H]2C[C@](C)(N)[C@H](O)[C@H](C)O2)Oc2ccc(cc2Cl)[C@H]1O [vancomycin hydrochloride] | 26.6%
32 | CNS(=O)(=O)Cc1ccc2[nH]cc(CCN(C)C)c2c1 [sumatriptan succinate] | 3.77%
33 | CC(C)[C@@H]1NC(=O)[C@H](CCCCN)NC(=O)[C@@H](Cc2c[nH]c3ccccc23)NC(=O)[C@H](Cc2ccc(O)cc2)NC(=O)[C@@H](NC(=O)[C@H](N)Cc2ccccc2)CSSC[C@@H](C(=O)N[C@@H](Cc2c[nH]c3ccccc23)C(N)=O)NC1=O [Vapreotide acetate salt] (H-[dF]CY[dW]KVCW-NH2; disulfide 2-7) | 1.15%
34 | S=C1SCN(Cc2ccccc2)CN1Cc1ccccc1 [sulbentine] | 22.6%
35 | Cc1cc(C2CCCCC2)n(O)c(=O)c1 [ciclopirox olamine] | 95.1%
36 | COc1cc(C(=O)NS(=O)(=O)c2ccccc2C)ccc1Cc1cn(C)c2ccc(NC(=O)OC3CCCC3)cc12 | 6.41%
37 | O=C(O)c1cc(=O)c2ccccc2o1 [chromocarb] | 4.61%
38 | NS(=O)(=O)c1cc(C(=O)O)c(NCc2ccco2)cc1Cl [furosemide] | 37.2%
39 | N=C(N)NC(=O)c1nc(Cl)c(N)nc1N [Amiloride hydrochloride] | < 0%
40 | COc1ccc(Cc2cnc(N)nc2N)cc1OC [diaveridine] | < 0%
41 | CC(Cc1ccccc1)(NC(=O)CN)c1ccccc1 (configuration not stated) [remacemide hydrochloride] | 2.04%
42 | CCCCC1=NC2(CCCC2)C(=O)N1Cc1ccc(-c2ccccc2-c2nnn[nH]2)cc1 [irbesartan] | 9.44%
43 | CC[C@H]1OC(=O)[C@H](C)[C@@H](O[C@H]2C[C@@](C)(OC)[C@@H](O)[C@H](C)O2)[C@H](C)[C@@H](O[C@@H]2O[C@H](C)C[C@H](N(C)C)[C@H]2O)[C@](C)(OC)C[C@@H](C)C(=O)[C@H](C)[C@@H](O)[C@]1(C)O [clarithromycin] | 0.273%
44 | O=C(Nc1ccc(C(=O)O)c(O)c1)c1ccccc1 [benzoylpas] | 28%
45 | CCCCOC(=O)c1ccc(N)cc1 [butamben] | 66.2%
46 | COC(=O)[C@@H]1[C@H]2C[C@H]3c4[nH]c5ccccc5c4CCN3C[C@@H]2CC[C@@H]1O [yohimbine hydrochloride] | < 0%
47 | COC(=O)[C@@H]1[C@H]2C[C@H]3c4[nH]c5ccccc5c4CCN3C[C@@H]2CC[C@@H]1O [Yohimbine hydrochloride] | 0.611%
48 | C[C@]12C=CC(=O)C=C1CC[C@@H]1[C@@H]2[C@@H](O)C[C@@]2(C)[C@H]1CC[C@]2(O)C(=O)COC(=O)CCC(=O)O [prednisolone hemisuccinate] | 0.171%

An excerpt of these results, comma-delimited.
Row,SMILES,motility inhibition on day 3
40,COc1ccc(Cc2cnc(N)nc2N)cc1OC [diaveridine],< 0%
41,CC(Cc1ccccc1)(NC(=O)CN)c1ccccc1 (configuration not stated) [remacemide hydrochloride],2.04%

Individual results from the list:
Under motility inhibition on day 3, COc1ccc(Cc2cnc(N)nc2N)cc1OC [diaveridine] has the entry < 0%
Under motility inhibition on day 3, CN[C@H](CC(C)C)C(=O)N[C@H]1C(=O)N[C@@H](CC(N)=O)C(=O)N[C@H]2C(=O)N[C@H]3C(=O)N[C@H](C(=O)N[C@H](C(=O)O)c4cc(O)cc(O)c4-c4cc3ccc4O)[C@H](O)c3ccc(c(Cl)c3)Oc3cc2cc(c3O[C@@H]2O[C@H](CO)[C@@H](O)[C@H](O)[C@H]2O[C@H]2C[C@](C)(N)[C@H](O)[C@H](C)O2)Oc2ccc(cc2Cl)[C@H]1O [vancomycin hydrochloride] has the entry 26.6%
Under motility inhibition on day 3, CCC(CC)(CC(=O)Nc1cccc(/C=C/c2nc(C3CCC3)cs2)c1)C(=O)O [cinalukast] has the entry < 0%
Under motility inhibition on day 3, COC(=O)[C@@H]1[C@H]2C[C@H]3c4[nH]c5ccccc5c4CCN3C[C@@H]2CC[C@@H]1O [yohimbine hydrochloride] has the entry < 0%

(next part)

Row | SMILES | motility inhibition on day 3
49 | CCCCCCc1ccc(O)cc1O [hexylresorcinol] | < 0%
50 | CC1(C)NC(=O)N(c2ccc([N+](=O)[O-])c(C(F)(F)F)c2)C1=O [nilutamide] | 2.33%
51 | CCC1=C(C)CN(C(=O)NCCc2ccc(S(=O)(=O)NC(=O)N[C@H]3CC[C@H](C)CC3)cc2)C1=O [glimepiride] | 10.4%
52 | O=C1CCc2cc(OCCCCc3nnnn3C3CCCCC3)ccc2N1 [cilostazol] | 3.27%
53 | N#C[C@@H]1C[C@@H]2C[C@@H]2N1C(=O)[C@@H](N)C12CC3CC(CC(O)(C3)C1)C2 [saxagliptin] | 18%
54 | CCS(=O)(=O)CCn1c([N+](=O)[O-])cnc1C [tinidazole] | 27%
55 | CCCCOc1cc(C(=O)NCCN(CC)CC)c2ccccc2n1 [dibucaine hydrochloride] | 2.81%
56 | CC[C@H]1OC(=O)[C@H](C)C(=O)[C@H](C)[C@@H](O[C@@H]2O[C@H](C)C[C@H](N(C)C)[C@H]2O)[C@](C)(OC)C[C@@H](C)C(=O)[C@H](C)[C@H]2N(CCCCn3cnc(-c4cccnc4)c3)C(=O)O[C@]12C [telithromycin] | 10.3%
57 | O=P(O)(O)C(Cl)(Cl)P(=O)(O)O [Clodronic acid] | 10%
58 | CCN1CC(CCN2CCOCC2)C(c2ccccc2)(c2ccccc2)C1=O (configuration not stated) [doxapram hydrochloride] | 3.14%
59 | CC(=O)N[C@H]1[C@H]([C@H](O)[C@H](O)CO)OC(C(=O)O)=C[C@@H]1NC(=N)N [Zanamivir] | 23.4%
60 | Cc1nc2n(c(=O)c1CCN1CCC(c3noc4cc(F)ccc34)CC1)CCCC2 [Risperidone] | 16.8%
61 | CNCCC(Oc1ccc(C(F)(F)F)cc1)c1ccccc1 (configuration not stated) [Fluoxetine hydrochloride] | 18.5%
62 | CC1CCC(C(C)C)C(O)C1 (single isomer, unassigned; (-)) [(-)-menthol] | < 0%
63 | CC(=O)Nc1ccc(CC(=O)O)cc1 [actarit] | 1.65%
64 | OCc1cc(C(O)CNCCCCCCOCCCCc2ccccc2)ccc1O (configuration not stated) [Salmeterol] | 0.574%
65 | CC(=O)OCC(=O)[C@@]12N=C(C)O[C@@H]1C[C@H]1[C@@H]3CCC4=CC(=O)C=C[C@]4(C)[C@H]3[C@@H](O)C[C@@]12C [deflazacort] | 17.5%
66 | CC(C)Nc1ncccn1 [isaxonine] | < 0%
67 | CC(C)(C)NC[C@H](O)c1ccc(O)c(CO)c1 [levalbuterol hydrochloride] | 33.5%
68 | CCCCCCCCCCCCC[N+](C)(C)Cc1ccccc1 [benzalkonium chloride] | 97%
69 | CCn1cc(C(=O)O)c(=O)c2cnc(N3CCCC3)nc21 [piromidic acid] | < 0%
70 | O=S(=O)(O)CCS [mesna] | 12.3%
71 | CC(=O)[C@H]1CC[C@H]2[C@@H]3C[C@H](C)C4=CC(=O)CC[C@]4(C)[C@H]3[C@@H](O)C[C@]12C [medrysone] | 0.0336%
72 | CCOC(=O)OC(C)OC1=C(C(=O)Nc2ccccn2)N(C)S(=O)(=O)c2ccccc21 (configuration not stated) [ampiroxicam] | < 0%
